Data reported in publication PMC8049018, “A MIF‐Derived Cyclopeptide that Inhibits MIF Binding and Atherogenic Signaling via the Chemokine Receptor CXCR2” (Chembiochem, 2020).
No constants are given. Whether binding was seen depends on the method and setting.

The chains behind the UniProt entries cited, without tags or fusion partners.
UniProt P25025: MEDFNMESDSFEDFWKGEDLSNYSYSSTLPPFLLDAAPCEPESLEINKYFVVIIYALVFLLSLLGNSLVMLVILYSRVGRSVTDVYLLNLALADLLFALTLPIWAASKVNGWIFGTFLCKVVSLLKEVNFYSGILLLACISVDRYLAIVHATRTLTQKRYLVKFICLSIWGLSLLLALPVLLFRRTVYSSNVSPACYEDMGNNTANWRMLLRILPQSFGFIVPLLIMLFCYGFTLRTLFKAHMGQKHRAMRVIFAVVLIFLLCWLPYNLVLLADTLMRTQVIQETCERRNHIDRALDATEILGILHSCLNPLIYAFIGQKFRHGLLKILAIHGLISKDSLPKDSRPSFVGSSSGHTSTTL

T1: recombinant human macrophage migration inhibitory factor (MIF) (human) (UniProt P14174)
T1 sequence (chain, Alexa Fluor-488 label (Alexa-MIF, in the fluorescence titration)): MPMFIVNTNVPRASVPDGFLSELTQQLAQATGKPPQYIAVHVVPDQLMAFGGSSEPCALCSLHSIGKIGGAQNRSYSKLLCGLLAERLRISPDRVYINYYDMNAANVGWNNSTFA


Key:
human CXCR2 (human) = human CXCR2 (human) (UniProt P25025); assay: label-free dynamic mass redistribution (DMR); HEK293-CXCR2 transfectants on fibronectin-coated label-free plates, against non-transfected cells; peptides at 500 μM (MIF(47–56) also at 100, 200, 400 μM); 20 mM HEPES, 1 % DMSO in HBSS pH 7.4; room temperature; shift of resonant wavelength Δpm as a measure of binding; only the binder purified
[1] = target: T1, recombinant human macrophage migration inhibitory factor (MIF) (human); assay: condition: up to 1000-fold molar excess over 10 nM Alexa-MIF; other fluorescence titration; Alexa-MIF 10 nM mixed with MIF(47–56) at ratios 1:0.1 to 1:1000; 10 mM sodium phosphate pH 7.4, 1 % HFIP; room temperature; excitation 492 nm, emission at 519 nm; both purified

binding (human CXCR2 (human))	binding [1]	Binder
no binding (tested: 500 μM)	–	SFESGPAGML (N-terminally acetylated; C-terminally amidated) [scrambled control peptide of MIF(47–56)]
–	no binding	LMAFGGSSEP (N-terminally acetylated; C-terminally amidated) [MIF(47–56)]
